PubChem BioAssay AID1259425, University of Nebraska Medical Center, 2018

- Screen: 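Find knockdowns that reproduce the gene expression pattern seen when KSR1 is lost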 (primary screen)
- Cells: HCT116 human colon cancer cells
- Reagents: siRNA pool against human genes, 50 nM siRNA
- Detection: 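mRNA of six signature genes measured together by branched-DNA assay after 50 nM siRNA pool, blank removed, divided by geometric mean of two housekeeping genes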
- Direction: BNIP3L mRNA: higher = more BNIP3L transcript after knockdown; NDRG1 mRNA: higher = more NDRG1 transcript after knockdown; BNIP3 mRNA: higher = more BNIP3 transcript after knockdown; ALDOC mRNA: higher = more ALDOC transcript after knockdown; ACSL5 mRNA: higher = more ACSL5 transcript after knockdown
This is one part, drawn at random, of about 14,000 reagents tested. Not stated in the record: the time to read-out.

gene,"BNIP3L mRNA, set 1","NDRG1 mRNA, set 1","BNIP3 mRNA, set 1","ALDOC mRNA, set 1","ACSL5 mRNA, set 1"
HOMEZ,0.106,0.103,0.416,0.0161,0.265
ELOVL4,0.219,0.39,0.482,0.0345,0.24
NAALAD2,0.0856,0.148,0.25,0.0365,0.132
ALDH7A1,0.0844,0.141,0.423,0.0238,0.157
HSD17B7,0.0637,0.146,0.226,0.0281,0.188
NCBP1,0.122,0.118,0.241,0.00144,0.208
EVA1A,0.386,0.285,0.261,0.153,0.61
NSD3,0.142,0.0776,0.229,0.0569,0.0572
FEV,0.23,0.449,0.583,0.056,0.22
EXOSC8,0.272,0.14,0.493,0.0337,0.112
P2RY10,0.246,0.311,0.404,0.0156,0.246
STAG3,0.096,0.17,0.283,0.014,0.0888
SCGB2A2,0.104,0.0744,0.281,0.0287,0.103
IL38,0.193,0.828,0.38,0.0739,0.453
HNF4A,0.124,0.0664,0.239,0.0129,0.153
SLC11A1,0.0956,0.159,0.325,0.00804,0.12
XPO7,0.221,0.0602,0.324,0.0686,0.127
BRPF3,0.0857,0.169,0.226,0.0273,0.14
PYM1,0.164,0.228,0.237,0.0876,0.27
DCUN1D2,0.0558,0.322,0.289,0.0282,0.147
ROPN1L,0.0704,0.296,0.291,0.0142,0.26

Not a retest: 10 of the entries above.
gene,"BNIP3L mRNA, set 1","NDRG1 mRNA, set 1","BNIP3 mRNA, set 1","ALDOC mRNA, set 1","ACSL5 mRNA, set 1"
NSD3,0.142,0.0776,0.229,0.0569,0.0572
FEV,0.23,0.449,0.583,0.056,0.22
EXOSC8,0.272,0.14,0.493,0.0337,0.112
P2RY10,0.246,0.311,0.404,0.0156,0.246
STAG3,0.096,0.17,0.283,0.014,0.0888
SCGB2A2,0.104,0.0744,0.281,0.0287,0.103
IL38,0.193,0.828,0.38,0.0739,0.453
HNF4A,0.124,0.0664,0.239,0.0129,0.153
SLC11A1,0.0956,0.159,0.325,0.00804,0.12
XPO7,0.221,0.0602,0.324,0.0686,0.127

Additional reagents follow:
gene,"BNIP3L mRNA, set 1","NDRG1 mRNA, set 1","BNIP3 mRNA, set 1","ALDOC mRNA, set 1","ACSL5 mRNA, set 1"
DUOX1,1.37,4.47,3.17,0.221,0.236
AQP4,0.0867,0.448,0.353,0.00834,0.14
MAGED4B,0.117,0.173,0.3,0.00981,0.126
ATM,0.144,0.133,0.213,0.00424,0.151
MCCC1,0.0582,0.107,0.25,0.0152,0.152
FAT2,0.115,0.312,0.375,0.0388,0.154
GSTM3,0.0649,0.184,0.246,0.0109,0.133
SPATA16,0.301,0.271,0.475,0.0716,0.454
CLDN18,0.234,0.278,0.373,0.0646,0.184
CUL3,0.0449,0.143,0.237,0.0301,0.104
C1QA,0.191,0.254,0.348,0.0375,0.34
SP100,0.0851,0.275,0.294,0.0184,0.205
CCL20,0.0525,0.127,0.196,0.0162,0.152
RAB2B,0.162,0.206,0.346,0.0714,0.114
MMRN1,0.125,0.134,0.359,0.0283,0.116
TCAF1,0.101,0.216,0.425,0.0548,0.194
ACKR4,0.144,0.12,0.278,0.0354,0.129
TIMP1,0.0945,0.296,0.222,0.0533,0.216
QTRT2,0.0789,0.102,0.218,0.0264,0.103
CYC1,0.145,0.294,0.134,0.0253,0.131
ITGAV,0.133,0.256,0.249,0.02,0.392
ACTL6A,0.142,0.449,0.341,0.0315,0.266
BRIX1,0.198,0.406,0.367,0.031,0.273
GUCY1A2,0.0907,0.165,0.262,0.0242,0.0923
COLEC11,0.0683,0.172,0.215,0.0273,0.205
MICAL1,0.138,0.297,0.313,0.0704,0.118
HBG1,0.0803,0.105,0.245,0.0233,0.129
UBA6,0.0986,0.175,0.281,0.0183,0.126
ATP5F1C,0.0898,0.173,0.375,0.0184,0.132
INPP5E,0.211,0.283,0.375,0.05,0.174
SERPINB7,0.0643,0.198,0.31,0.0353,0.15
ZNF160,0.162,0.103,0.629,0.0133,0.156
IFI27L2,0.147,0.321,0.31,0.0566,0.332
THRAP3,0.0981,0.144,0.352,0.0213,0.208
LY6E,0.0928,0.391,0.333,0.0267,0.158
BICRA,0.2,0.191,0.29,0.015,0.0885
CYTIP,0.176,0.262,0.365,0.0267,0.207
NAXD,0.143,0.263,0.441,0.0208,0.293
SLC4A3,0.119,0.198,0.385,0.00552,0.205
PPP4R1,0.0954,0.144,0.127,0.0101,0.0869
RBM45,0.0717,0.331,0.352,0.0189,0.25
REG1B,0.0847,0.179,0.27,0.0201,0.128
